{"source": "PubChem BioAssay AID1508597 | Cure First, 2020", "aim": "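Survival screen with siRNA in ovarian cancer cells derived from patients, with or without rucaparib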 (primary screen)", "cell system": "human ovarian carcinoma lines grown from tumours: OCI-P5x (papillary serous) and OCI-C5x (clear cell)", "reagents": "siRNA pool against human genes, 1.25 pmol siRNA per well", "time to read-out": "72 h or 96 h, depending on the cell culture", "treatment": "rucaparib 20 µM (about IC30) or vehicle, present until read-out", "detection": "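Luminescent ATP-based viability assay read 72 or 96 h after transfection, depending on culture, given as normalised percent viability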", "direction": "viability, normalised: higher = more viable cells remaining", "active means": "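a well counts as a hit if its normalised viability is under 80 percent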", "meaning of the calls": "active = viability under 80%; inactive = viability 80% or more", "note": "Shown is an unselected part of about 2,100 reagents. 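Calls flag viability under 80% in either arm, not effects specific to rucaparib; the reference for percent is not stated.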 Entries without a mark were called inactive. A reagent listed more than once was tested more than once; the source does not tell the runs apart. The record does not give: the 100% reference."}
{"gene":"PRKDC","rucaparib or vehicle":"Rucaparib","cell line":"OCI-C5x (clear cell)","technical replicate":"1","viability, normalised (%)":"52.6 (active)"}
{"gene":"PRKDC","rucaparib or vehicle":"Rucaparib","cell line":"OCI-C5x (clear cell)","technical replicate":"1","viability, normalised (%)":"76.9 (active)"}
{"gene":"PRKDC","rucaparib or vehicle":"Rucaparib","cell line":"OCI-C5x (clear cell)","technical replicate":"2","viability, normalised (%)":"65.3 (active)"}
{"gene":"PRKDC","rucaparib or vehicle":"Rucaparib","cell line":"OCI-C5x (clear cell)","technical replicate":"2","viability, normalised (%)":"61.3 (active)"}
{"gene":"PRKDC","rucaparib or vehicle":"Rucaparib","cell line":"OCI-C5x (clear cell)","technical replicate":"3","viability, normalised (%)":"60.5 (active)"}
{"gene":"PRKDC","rucaparib or vehicle":"Rucaparib","cell line":"OCI-C5x (clear cell)","technical replicate":"3","viability, normalised (%)":"51.3 (active)"}
{"gene":"PRKDC","rucaparib or vehicle":"Rucaparib","cell line":"OCI-P5x (serous)","technical replicate":"1","viability, normalised (%)":90.5}
{"gene":"PRKDC","rucaparib or vehicle":"Rucaparib","cell line":"OCI-P5x (serous)","technical replicate":"1","viability, normalised (%)":87.4}
{"gene":"PRKDC","rucaparib or vehicle":"Rucaparib","cell line":"OCI-P5x (serous)","technical replicate":"2","viability, normalised (%)":90.9}
{"gene":"PRKDC","rucaparib or vehicle":"Rucaparib","cell line":"OCI-P5x (serous)","technical replicate":"2","viability, normalised (%)":81.8}
{"gene":"PRKDC","rucaparib or vehicle":"Rucaparib","cell line":"OCI-P5x (serous)","technical replicate":"3","viability, normalised (%)":88.2}
{"gene":"PRKDC","rucaparib or vehicle":"Rucaparib","cell line":"OCI-P5x (serous)","technical replicate":"3","viability, normalised (%)":91.8}
{"gene":"PRKDC","rucaparib or vehicle":"Vehicle","cell line":"OCI-C5x (clear cell)","technical replicate":"1","viability, normalised (%)":"65 (active)"}
{"gene":"PRKDC","rucaparib or vehicle":"Vehicle","cell line":"OCI-C5x (clear cell)","technical replicate":"1","viability, normalised (%)":"73.7 (active)"}
{"gene":"PRKDC","rucaparib or vehicle":"Vehicle","cell line":"OCI-C5x (clear cell)","technical replicate":"2","viability, normalised (%)":"62.4 (active)"}
{"gene":"PRKDC","rucaparib or vehicle":"Vehicle","cell line":"OCI-C5x (clear cell)","technical replicate":"2","viability, normalised (%)":"50.3 (active)"}
{"gene":"PRKDC","rucaparib or vehicle":"Vehicle","cell line":"OCI-C5x (clear cell)","technical replicate":"3","viability, normalised (%)":"60.9 (active)"}
{"gene":"PRKDC","rucaparib or vehicle":"Vehicle","cell line":"OCI-C5x (clear cell)","technical replicate":"3","viability, normalised (%)":"44.1 (active)"}
{"gene":"PRKDC","rucaparib or vehicle":"Vehicle","cell line":"OCI-P5x (serous)","technical replicate":"1","viability, normalised (%)":"54.3 (active)"}
{"gene":"PRKDC","rucaparib or vehicle":"Vehicle","cell line":"OCI-P5x (serous)","technical replicate":"1","viability, normalised (%)":80.7}
{"gene":"PRKDC","rucaparib or vehicle":"Vehicle","cell line":"OCI-P5x (serous)","technical replicate":"2","viability, normalised (%)":"69.1 (active)"}
{"gene":"PRKDC","rucaparib or vehicle":"Vehicle","cell line":"OCI-P5x (serous)","technical replicate":"2","viability, normalised (%)":"77.2 (active)"}
{"gene":"PRKDC","rucaparib or vehicle":"Vehicle","cell line":"OCI-P5x (serous)","technical replicate":"3","viability, normalised (%)":"52.1 (active)"}
{"gene":"PRKDC","rucaparib or vehicle":"Vehicle","cell line":"OCI-P5x (serous)","technical replicate":"3","viability, normalised (%)":"68.8 (active)"}
